# Experimental data published in publication PMC7819943, “Rice protein-binding microarrays: a tool to detect cis-acting elements near promoter regions in rice”.
# The chains behind the UniProt entries cited, without tags or fusion partners.
# UniProt Q0JBA9, entry or part of it: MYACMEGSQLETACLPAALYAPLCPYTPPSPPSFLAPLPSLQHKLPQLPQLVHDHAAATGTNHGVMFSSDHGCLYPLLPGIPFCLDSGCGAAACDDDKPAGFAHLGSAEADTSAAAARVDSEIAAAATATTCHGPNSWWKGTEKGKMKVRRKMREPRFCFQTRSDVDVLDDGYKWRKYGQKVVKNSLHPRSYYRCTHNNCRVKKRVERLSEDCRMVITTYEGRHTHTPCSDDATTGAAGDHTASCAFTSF
# The list shows a part of the results.
# Biological target: OsWRKY34 (Oryza sativa, UniProt Q0JBA9 1-250)
# Test: protein-binding microarray (RPBM); PBS, 2% BSA, 51.3 ng/ul salmon testes DNA, 50 uM zinc acetate, 200 nM TF, 25 C, 1 h; high values mean tight binding
# Settings: protein: recombinant; tags: N-terminal polyhistidine and DsRed monomer fusion (pET32a); label: CyDye5-dUTP incorporated in the synthesized complementary strand; 3' TTTTT single-stranded linker to array surface; dsDNA, one strand shown
# How it was run: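 Polyhistidine-tagged DsRed fusions of transcription factors, joined at the N-terminus, were expressed in E. coli BL21-CodonPlus and isolated on Ni–NTA. They were incubated at 200 nM for 1 h at 25 °C on a custom Agilent array, double-stranded and BSA-blocked, in PBS with 2% BSA, salmon testes DNA and 50 µM zinc acetate. The binding signal is per-feature fluorescence intensity (arbitrary units) read on an Axon 4000B scanner after washing.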
row,Sequence,binding signal
1,ATGGTCTTGGTTTTGGGCGGCACGGTGGCACCTTTGTGCCCGGAGTCACCTAGTGCAG,8520 fluorescence intensity (a.u.)
2,TCGTTTCTTTGCCAGCTGCGCATCCATTCAGCCGGTCGTACGGAGTCACCTAGTGCAG,12700 fluorescence intensity (a.u.)
3,TCGTTTCGTTTTTTCCTTTTTTTGATCCATCTTGCTGCTACGGAGTCACCTAGTGCAG,8280 fluorescence intensity (a.u.)
4,GCCTAGATCCGCATTAAACTAGTCTATCTCCAGCAATTTACGGAGTCACCTAGTGCAG,9240 fluorescence intensity (a.u.)
5,ATCCTTTGGATTCTTTTCTTGATCGTTTCTATTCCTAATTCGGAGTCACCTAGTGCAG,9310 fluorescence intensity (a.u.)
6,TCTTCCCCGCGTTATCAAAGATTTCAATCTCTATAGGTTCCGGAGTCACCTAGTGCAG,8700 fluorescence intensity (a.u.)
7,AATCCGCTCAGTTTGTACTACGTATTATTATTCATTCTTCCGGAGTCACCTAGTGCAG,12800 fluorescence intensity (a.u.)
8,TCTGTTCCCGCAACAACCCTTATCTTTGGTTCCGCTTCGACGGAGTCACCTAGTGCAG,8300 fluorescence intensity (a.u.)
9,GATTAATATGATTTTCTGCAGTAACTATTCTATAGAATTTCGGAGTCACCTAGTGCAG,9620 fluorescence intensity (a.u.)
10,TTTTGGTCCCCTTATCATCCACATCCAGTTGACCAGTCCCCGGAGTCACCTAGTGCAG,11000 fluorescence intensity (a.u.)
11,GCTAGTGGTGTACTGGTGGTCATTGTCATTTGTTTTTCACCGGAGTCACCTAGTGCAG,14700 fluorescence intensity (a.u.)
12,GTAAATAGTCTCTGAAATACTCCAGTCTAGTACTCCACATCGGAGTCACCTAGTGCAG,8030 fluorescence intensity (a.u.)
13,AGGGTCATGGATTAGATTTCGATCACTCTTGAGGGTCATGCGGAGTCACCTAGTGCAG,8850 fluorescence intensity (a.u.)
14,GGTTGGTTCTTGTGTGTCCCTAAGCGTGAAAAAAATATCACGGAGTCACCTAGTGCAG,14200 fluorescence intensity (a.u.)
15,CCAGTTCTTCATTCTCCTCTCCCGGTTCTGTTCTTGGTTCCGGAGTCACCTAGTGCAG,10800 fluorescence intensity (a.u.)
16,TGAATCAACCACGTACGCGGTACTCCTCGTCCTCGCGATCCGGAGTCACCTAGTGCAG,8210 fluorescence intensity (a.u.)
17,GCCGATTTTCCCCAATTAACGTGTATTTGTGAGGTTTTTTCGGAGTCACCTAGTGCAG,11800 fluorescence intensity (a.u.)
18,CCTCCGTTCAGTTCCATCCACCAAACCAATCAAACGCATTCGGAGTCACCTAGTGCAG,8450 fluorescence intensity (a.u.)
19,ATATATATATATATATATATATATATACGCGACTAGAAGACGGAGTCACCTAGTGCAG,11400 fluorescence intensity (a.u.)
20,GCGCGGGTCTCTTGCTTTCTTGGCGCTCCCGTCGGCGAGACGGAGTCACCTAGTGCAG,9750 fluorescence intensity (a.u.)
21,CGTTTCATATTATTATAAGCCGTTTGATTTTTTTCTAATCCGGAGTCACCTAGTGCAG,8140 fluorescence intensity (a.u.)

row,Sequence,binding signal
1,CTTAATCGGTATGGGGAGAGTGTTCTTATTGTTTCATTTACGGAGTCACCTAGTGCAG,16800 fluorescence intensity (a.u.)
2,TTTGACATCATTGACTTTTTAGCACATATTTGACCGTTCGCGGAGTCACCTAGTGCAG,14400 fluorescence intensity (a.u.)
3,AAATACTAGTAAACTGCTCTTTCTTTTGTGCTGTCTTGATCGGAGTCACCTAGTGCAG,14200 fluorescence intensity (a.u.)
4,CCACTTACAAATATCACCCACACTTACACTTTCATTTTCGCGGAGTCACCTAGTGCAG,8700 fluorescence intensity (a.u.)
5,CACGGTCTTCAAAACACAACTTTGACTTCTTGTTTCTATACGGAGTCACCTAGTGCAG,10300 fluorescence intensity (a.u.)
6,TTTTTATTATGTTCTAAGTTTTGCTCAGCTCTTCATGTTTCGGAGTCACCTAGTGCAG,8700 fluorescence intensity (a.u.)
7,ACAAACCAAATACATCACATATTATACATCTCAGATCCATCGGAGTCACCTAGTGCAG,8400 fluorescence intensity (a.u.)
8,AGGAGAATGATATAGCACATACCCTAGGAGCTCTTTTTCACGGAGTCACCTAGTGCAG,8520 fluorescence intensity (a.u.)
9,GTACTTGCATGTTTCCATTCCCATTCCAATTCCAACCATACGGAGTCACCTAGTGCAG,9600 fluorescence intensity (a.u.)
10,ATCACCACCGCCGCCGCCGTCTTCTTCTCCTCCTCCTCTTCGGAGTCACCTAGTGCAG,11500 fluorescence intensity (a.u.)
11,GTCGTGTCGCCGTCTCCGAGTGCCTTCACCTCTGCCTTCCCGGAGTCACCTAGTGCAG,8910 fluorescence intensity (a.u.)
12,ACTTTCATTCACTCAGATGTTCTCATTTATCATCCTTATACGGAGTCACCTAGTGCAG,12000 fluorescence intensity (a.u.)
13,CAGGTAGTGTGCAGTGTAGGTCGTCTGAGTCGGTCAGTTTCGGAGTCACCTAGTGCAG,9050 fluorescence intensity (a.u.)
14,AGCCCATATCTAATTCTCTAAATTTCATACCACATATTTTCGGAGTCACCTAGTGCAG,9900 fluorescence intensity (a.u.)
15,TCCGGTTGTTGTGCTGATTCTTCGTTCTTTCTCTCCCTCTCGGAGTCACCTAGTGCAG,10100 fluorescence intensity (a.u.)
16,AGCAAACCAATCATGCATCATTACGCGTTAGTCAATCTCTCGGAGTCACCTAGTGCAG,8740 fluorescence intensity (a.u.)
17,CACCTCCCTATCCTTCACACCTAGCTCGCTCGATCATTTCCGGAGTCACCTAGTGCAG,11000 fluorescence intensity (a.u.)
18,ACCCCTACGCACGCCGACGGGCCCTGCGCCAGAAACCCTCCGGAGTCACCTAGTGCAG,9780 fluorescence intensity (a.u.)
19,ATTTCCATTTTCCTCGGGCAAGAACTGCTTTGTCCACTCCCGGAGTCACCTAGTGCAG,8980 fluorescence intensity (a.u.)
20,ACTTTTTTAAATATGTTTGACCGTTCGTTTTATTCAAAAACGGAGTCACCTAGTGCAG,8320 fluorescence intensity (a.u.)
21,TTCGACACCTGGTTTTTCTCTTACTTACAAACGGATGTTACGGAGTCACCTAGTGCAG,9310 fluorescence intensity (a.u.)

row,Sequence,binding signal
1,GTTCCTTTATTTCTTTCTTTACTAGTACTAGTTGCATGTTCGGAGTCACCTAGTGCAG,9900 fluorescence intensity (a.u.)
2,ACACTGACTGATTTACCCTTGATCATACTACTAGTACATTCGGAGTCACCTAGTGCAG,8470 fluorescence intensity (a.u.)
3,TTTTCTCACGTGGAAACCACCGTTCGCTTCGTTAACCTCCCGGAGTCACCTAGTGCAG,10400 fluorescence intensity (a.u.)
4,TCGTTGACTATGTGTGGTGTTCCATGCCGCTAAGTCGATGCGGAGTCACCTAGTGCAG,9690 fluorescence intensity (a.u.)
5,GGCCCTCATGATGATGACACTACCGTTCCAGCCCAACATACGGAGTCACCTAGTGCAG,9290 fluorescence intensity (a.u.)
6,TGGCGACCTAATTTACCGTCTCCCGCGAAACCCGGACAAACGGAGTCACCTAGTGCAG,8770 fluorescence intensity (a.u.)
7,GTCCCTACTGTTGCTAGTTGCACTTCTCGCGATCACTTGACGGAGTCACCTAGTGCAG,9870 fluorescence intensity (a.u.)
8,TACTGCAACTCTGCAAGCACATTGATCAATCGATCAATCCCGGAGTCACCTAGTGCAG,8450 fluorescence intensity (a.u.)
9,GACCGTGCGACGCACCATTTGATTACTGCCTTATTGAGTTCGGAGTCACCTAGTGCAG,9630 fluorescence intensity (a.u.)
10,CGTGCCGTCCAACACCACTCATCCGATCCGACGGCCCGCGCGGAGTCACCTAGTGCAG,8360 fluorescence intensity (a.u.)
11,CACAAGAGCGACGACCCCACCGTATCCCACACCTCGCTCACGGAGTCACCTAGTGCAG,10900 fluorescence intensity (a.u.)
12,TGATGGATGTATTGGATATATGGTTGTGTCCTGGTTTACCCGGAGTCACCTAGTGCAG,8140 fluorescence intensity (a.u.)
13,ATTCCTCATTTAGTACCAGGCTCTGGTTTCTCTCGGTGCTCGGAGTCACCTAGTGCAG,8090 fluorescence intensity (a.u.)
14,CCTTCATTCCCTCCGTCGTTCGCGTTCATCTTCTGCTTGTCGGAGTCACCTAGTGCAG,9480 fluorescence intensity (a.u.)
15,TTACATCTAGATCTTTTGCAACTTTTATTTAATTAAATTACGGAGTCACCTAGTGCAG,9970 fluorescence intensity (a.u.)
16,TGCCATTGCCCGCCCCATTCTGCCGTCTGCACCAGTCACACGGAGTCACCTAGTGCAG,9070 fluorescence intensity (a.u.)
17,ACGACGACCACACATGATACACGATACCCTTCTCTCCTTTCGGAGTCACCTAGTGCAG,9950 fluorescence intensity (a.u.)
18,CTTTTGTTGCCCACCCACCCATCAATCCGGTACCATGCAGCGGAGTCACCTAGTGCAG,8070 fluorescence intensity (a.u.)
19,TTTGTCAGAGGCTGCCCGTCCAACTTTTCTCATTGGTTCGCGGAGTCACCTAGTGCAG,9430 fluorescence intensity (a.u.)
20,TAGGTAGAACCCTGACGACGACAACTAGCGATGGGCGGGGCGGAGTCACCTAGTGCAG,8800 fluorescence intensity (a.u.)
21,GTCTCACCTCACCCACACCCACTCTCTTCTTCTGCTTCCTCGGAGTCACCTAGTGCAG,9080 fluorescence intensity (a.u.)

row,Sequence,binding signal
1,CCTCTAATATAAGGGATTTTGATATTTTGCTTGTATTGTTCGGAGTCACCTAGTGCAG,8410 fluorescence intensity (a.u.)
2,ATCTCACTCCCTTATATCGCTCGCTCACTCGCTAGCTCGCCGGAGTCACCTAGTGCAG,9970 fluorescence intensity (a.u.)
3,ACGGGCAAGCGGGCTTGTTTATCCCGCTTATCCCACTTCTCGGAGTCACCTAGTGCAG,8140 fluorescence intensity (a.u.)
4,TAAATAAGCAGTGCAATGGCTCTTGTATTTTTGACTTTTTCGGAGTCACCTAGTGCAG,8230 fluorescence intensity (a.u.)
5,GCTACAAATCTGTAGCCCGCTGCTCTTCTCTCTCCTGATTCGGAGTCACCTAGTGCAG,9190 fluorescence intensity (a.u.)
6,CTAGCTACCATCTATACTAGTATCAAGTTTTTTTGTTCAGCGGAGTCACCTAGTGCAG,9290 fluorescence intensity (a.u.)
7,CGTAATATCACATCTCCTGATGGCCTGCAATTTTTTTTACCGGAGTCACCTAGTGCAG,8210 fluorescence intensity (a.u.)
8,GTTTTGATTGGCATATGGTCCCTCCAATCCGTGTAATTGTCGGAGTCACCTAGTGCAG,8320 fluorescence intensity (a.u.)
9,AAGCATACCCTTTGTATTTGTTTTTTCTTCCCTCAAATCTCGGAGTCACCTAGTGCAG,8530 fluorescence intensity (a.u.)
10,TGCACCGCGCGCAGGGTAGGGTGGGCGTCCTTGCCATTGTCGGAGTCACCTAGTGCAG,8740 fluorescence intensity (a.u.)
11,ATGTCAGCTACCCACGTTTTTTCACAAGAGCATTTTTCCACGGAGTCACCTAGTGCAG,8340 fluorescence intensity (a.u.)
12,TACCTTTTGTACGGTTAACATCTCTAGATACGTCTACTAACGGAGTCACCTAGTGCAG,8790 fluorescence intensity (a.u.)
13,GGTGGTTTGAATTTGGTGTGGCGTTTTTCTTGGGCAGGGGCGGAGTCACCTAGTGCAG,21500 fluorescence intensity (a.u.)
14,AGCCACAAGATCCCATGAATATCTCTGACCGTCGCAAGATCGGAGTCACCTAGTGCAG,8130 fluorescence intensity (a.u.)
15,CGAACCCAAACCCGCGAGCCGTTACCCTTCCCGCCATTTCCGGAGTCACCTAGTGCAG,13100 fluorescence intensity (a.u.)
16,AGTGCATTCTCTCTCCTTATCTTCTCTCTCTTCCACATCACGGAGTCACCTAGTGCAG,12100 fluorescence intensity (a.u.)
17,GTAAGCACATATCCTCCTCGATAACCCCACCGGAAAATATCGGAGTCACCTAGTGCAG,8160 fluorescence intensity (a.u.)
18,GGTTATATCGCGTGGTTCAATTCCGGGGCCTTATCTCTCTCGGAGTCACCTAGTGCAG,13200 fluorescence intensity (a.u.)
19,TCTCTGCTGCCACCGTCGTCTCGTGCCTTGCATGTTTCCGCGGAGTCACCTAGTGCAG,11700 fluorescence intensity (a.u.)
20,ATCACCGCCTTTTACGTACCGGCTCTTTCACCTAGCTAGCCGGAGTCACCTAGTGCAG,10200 fluorescence intensity (a.u.)
21,AAGAGTTTATTTTTATTTTTTGTGCACATTGAATTCAATTCGGAGTCACCTAGTGCAG,9080 fluorescence intensity (a.u.)

# Random excerpt: five records from the list
row,Sequence,binding signal
18,ACCCCTACGCACGCCGACGGGCCCTGCGCCAGAAACCCTCCGGAGTCACCTAGTGCAG,9780 fluorescence intensity (a.u.)
2,ATCTCACTCCCTTATATCGCTCGCTCACTCGCTAGCTCGCCGGAGTCACCTAGTGCAG,9970 fluorescence intensity (a.u.)
19,ATTTCCATTTTCCTCGGGCAAGAACTGCTTTGTCCACTCCCGGAGTCACCTAGTGCAG,8980 fluorescence intensity (a.u.)
7,AATCCGCTCAGTTTGTACTACGTATTATTATTCATTCTTCCGGAGTCACCTAGTGCAG,12800 fluorescence intensity (a.u.)
1,CTTAATCGGTATGGGGAGAGTGTTCTTATTGTTTCATTTACGGAGTCACCTAGTGCAG,16800 fluorescence intensity (a.u.)
